{"source": "PubChem BioAssay AID1259405, NCATS – 2018", "screen": "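Mouse-designed siRNAs used to find CHO productivity engineering targets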 (primary screen)", "system": "Chinese hamster CHO-K1 ovary cells with stable secreted eGFP expression", "reagents": "single siRNA against mouse genes, 0.8 pmol siRNA per well (2 µl of 400 nM stock)", "timing": "3 days", "measurement": "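Percent of the per-plate non-targeting control median for intracellular GFP per well by laser scanning cytometry and for cell viability by ATP luminescence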", "direction": "GFP, % of control: higher = more GFP per well, higher productivity; viability (ATP), % of control: higher = more viable cells (more ATP)", "rule for the call": "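a knock-down is called active if GFP reaches 120% or more of non-targeting control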", "note": "Shown is one part, drawn at random, of about 50,000 deposited reagents. About 4,000 of all reagents (8%) were called active. 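Mouse siRNA library applied to hamster cells; one well for each siRNA.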 A number with no mark means an inactive call. The numbers tell different reagents against one gene apart."}
The first 2 entries as a preview:
{"gene": "S100a16", "siRNA no.": 1, "GFP, % of control": 79.1, "viability (ATP), % of control": 111}
{"gene": "S100a16", "siRNA no.": 2, "GFP, % of control": 74.8, "viability (ATP), % of control": 75.3}

Results, from the first entry:
{"gene": "S100a16", "siRNA no.": 1, "GFP, % of control": 79.1, "viability (ATP), % of control": 111}
{"gene": "S100a16", "siRNA no.": 2, "GFP, % of control": 74.8, "viability (ATP), % of control": 75.3}
{"gene": "Satb2", "siRNA no.": 1, "GFP, % of control": 67.6, "viability (ATP), % of control": 67.2}
{"gene": "Satb2", "siRNA no.": 2, "GFP, % of control": "126 (active)", "viability (ATP), % of control": 72.7}
{"gene": "Satb2", "siRNA no.": 3, "GFP, % of control": 72.1, "viability (ATP), % of control": 87.2}
{"gene": "Oard1", "siRNA no.": 1, "GFP, % of control": 84.3, "viability (ATP), % of control": 90}
{"gene": "Oard1", "siRNA no.": 2, "GFP, % of control": 74.6, "viability (ATP), % of control": 37.1}
{"gene": "Oard1", "siRNA no.": 3, "GFP, % of control": 73.1, "viability (ATP), % of control": 96.8}
{"gene": "Zfp524", "siRNA no.": 1, "GFP, % of control": 74.5, "viability (ATP), % of control": 57.3}
{"gene": "Zfp524", "siRNA no.": 2, "GFP, % of control": 61.7, "viability (ATP), % of control": 64}
{"gene": "Zfp524", "siRNA no.": 3, "GFP, % of control": 110, "viability (ATP), % of control": 88}
{"gene": "Mtln", "siRNA no.": 1, "GFP, % of control": 99.2, "viability (ATP), % of control": 83.8}
{"gene": "Mtln", "siRNA no.": 2, "GFP, % of control": 65.9, "viability (ATP), % of control": 70}
{"gene": "Mtln", "siRNA no.": 3, "GFP, % of control": 55.8, "viability (ATP), % of control": 83.2}
{"gene": "Ncbp3", "siRNA no.": 1, "GFP, % of control": 71.8, "viability (ATP), % of control": 98.2}
{"gene": "Ncbp3", "siRNA no.": 2, "GFP, % of control": 86.2, "viability (ATP), % of control": 81.6}
{"gene": "Ncbp3", "siRNA no.": 3, "GFP, % of control": 31.1, "viability (ATP), % of control": 41.7}
{"gene": "Lnpep", "siRNA no.": 1, "GFP, % of control": 102, "viability (ATP), % of control": 96.5}
{"gene": "Lnpep", "siRNA no.": 2, "GFP, % of control": 59.4, "viability (ATP), % of control": 64.8}
{"gene": "Lnpep", "siRNA no.": 3, "GFP, % of control": 80.4, "viability (ATP), % of control": 97.8}
{"gene": "Ms4a1", "siRNA no.": 1, "GFP, % of control": "248 (active)", "viability (ATP), % of control": 110}
{"gene": "Ms4a1", "siRNA no.": 2, "GFP, % of control": 84.3, "viability (ATP), % of control": 75.9}
{"gene": "Ms4a1", "siRNA no.": 3, "GFP, % of control": 56.6, "viability (ATP), % of control": 74.9}
{"gene": "Ms4a1", "siRNA no.": 4, "GFP, % of control": 118, "viability (ATP), % of control": 92.3}
{"gene": "Ms4a1", "siRNA no.": 5, "GFP, % of control": 70.1, "viability (ATP), % of control": 75.1}
{"gene": "Ms4a1", "siRNA no.": 6, "GFP, % of control": "124 (active)", "viability (ATP), % of control": 85.3}
{"gene": "Or4f57", "siRNA no.": 1, "GFP, % of control": "161 (active)", "viability (ATP), % of control": 118}
{"gene": "Or4f57", "siRNA no.": 2, "GFP, % of control": 43.1, "viability (ATP), % of control": 67.1}
{"gene": "Or4f57", "siRNA no.": 3, "GFP, % of control": 90.7, "viability (ATP), % of control": 121}
{"gene": "Or4f57", "siRNA no.": 4, "GFP, % of control": 114, "viability (ATP), % of control": 91.1}
{"gene": "Or4f57", "siRNA no.": 5, "GFP, % of control": 60.4, "viability (ATP), % of control": 103}
{"gene": "Or4f57", "siRNA no.": 6, "GFP, % of control": 100, "viability (ATP), % of control": 84.2}
{"gene": "Mterf3", "siRNA no.": 1, "GFP, % of control": 61.2, "viability (ATP), % of control": 98.5}
{"gene": "Mterf3", "siRNA no.": 2, "GFP, % of control": 69.3, "viability (ATP), % of control": 56.5}
{"gene": "Mterf3", "siRNA no.": 3, "GFP, % of control": 45.1, "viability (ATP), % of control": 120}
{"gene": "Dnai3", "siRNA no.": 1, "GFP, % of control": 58.8, "viability (ATP), % of control": 58.6}
{"gene": "Dnai3", "siRNA no.": 2, "GFP, % of control": 65.5, "viability (ATP), % of control": 85.3}
{"gene": "Dnai3", "siRNA no.": 3, "GFP, % of control": 75.7, "viability (ATP), % of control": 79.2}
{"gene": "Mrgprb3", "siRNA no.": 1, "GFP, % of control": "162 (active)", "viability (ATP), % of control": 77.9}
{"gene": "Mrgprb3", "siRNA no.": 2, "GFP, % of control": 79.1, "viability (ATP), % of control": 76.5}
{"gene": "Mrgprb3", "siRNA no.": 3, "GFP, % of control": 66.2, "viability (ATP), % of control": 52.7}
